Results from PubChem BioAssay AID1487 (National Center for Advancing Translational Sciences (NCATS), 2009).
Some of the results follow. Shown are side measurements of this screen, not its main read-out; they come without a call. The list favours compounds with an active or inconclusive main result. Potencies come from curve fits of mixed quality, noted in brackets.

Assay: qHTS Assay for Modulators of Lamin A Splicing
Details: HeLa LMNA splicing GFP/RFP minigene ratio, 48 h
Outline: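 S3 HeLa stable clones carrying a lamin A-EGFP splicing minigene plus DsRed2 were seeded at 600 cells/well in Opti-MEM with 2% FBS, pin-dosed and incubated 48 h at 37°C. Acumen cytometry (488 nm) gave the GFP/RFP total-intensity ratio.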

[1] = measured here: RFP viability control channel
[2] = measured here: GFP splicing reporter channel

Structure (SMILES)	AC50 [1]	AC50 [2]
COc1ccccc1-c1nc(SCc2ccccn2)n[nH]1	35.5 µM [rising, single point]	–
COCc1c(C(=O)OCC(=O)c2c(N)n(CC(C)C)c(=O)n(C)c2=O)oc2ccccc12	4.47 µM [rising, partial curve]	–
O=C(CSc1nc2ccccc2c(=O)n1Cc1ccco1)c1ccc(F)cc1	12.6 µM [rising, partial curve]	–
Cc1ccc(NC(=O)c2ocnc2C)cc1Cl	0.282 µM [falling, full curve, poor fit]	–
Clc1ccc(CN(Cc2ccc(Cl)cc2)c2nn[nH]n2)cc1	0.01 µM [rising, full curve, poor fit]	0.00355 µM [falling, full curve, poor fit]
CCOc1cc(CNCCc2ccc(S(N)(=O)=O)cc2)cc(Cl)c1OCc1ccccc1	–	10 µM [falling, single point]
Fc1ccc(Nc2ncnc3ccc(-c4ccoc4)cc23)cc1	17.8 µM [falling, partial curve]	20 µM [falling, partial curve]
O=C(NCCNc1ccc([N+](=O)[O-])cc1C(F)(F)F)c1ccccc1	31.6 µM [rising, single point]	–
Nc1c2c(nc3ccccc13)N(c1ccccc1)CC2	35.5 µM [rising, single point]	–
O=c1oc2cc(O)ccc2c2oc3cc(O)ccc3c12	14.1 µM [rising, single point]	–
Cc1cc(S(=O)(=O)N2CCN(c3c(C)cccc3C)CC2)ccc1F	20 µM [rising, single point]	–
CCOc1cccc2cc(-c3cn4cc(C)ccc4n3)c(=O)oc12	2.82 µM [falling, full curve]	–
C=CCN1C(c2cccc(C(F)(F)F)c2)=CS/C1=C(/C#N)c1nnc(N2CCOCC2)n1-c1ccccc1	31.6 µM [rising, single point]	31.6 µM [rising, single point]
CN1C(=O)/C(=C/C=C2\SCCN2C)N(C)C1=S	20 µM [rising, single point]	0.224 µM [rising, partial curve, poor fit]
C=C(C)C1CC=C(C)/C(=N/NC(=O)c2cccc([N+](=O)[O-])c2)C1 (stereo unspecified)	35.5 µM [rising, single point]	35.5 µM [rising, single point]
CCN(CC)C(=O)CSc1nc2c(sc(=S)n2-c2ccccc2)c(=O)n1Cc1ccco1	35.5 µM [rising, single point]	–
O=C(Nc1cccc(Cl)c1)c1ccc2nc(CCc3ccccc3)oc2c1	–	1.12 µM [falling, full curve, poor fit]
O=C(NCc1ccc(Cl)cc1)c1ccc(COCC(F)(F)F)o1	35.5 µM [rising, single point]	35.5 µM [rising, single point]

Laid out differently: entries from further up.
Structure (SMILES),AC50 [1],AC50 [2]
CCOc1cccc2cc(-c3cn4cc(C)ccc4n3)c(=O)oc12,"2.82 µM [falling, full curve]",–
C=CCN1C(c2cccc(C(F)(F)F)c2)=CS/C1=C(/C#N)c1nnc(N2CCOCC2)n1-c1ccccc1,"31.6 µM [rising, single point]","31.6 µM [rising, single point]"

(listing goes on)

Structure (SMILES)	AC50 [1]	AC50 [2]
CCCn1c2ccccc2c2cnn(CC(=O)NCc3ccccc3Cl)c(=O)c21	0.1 µM [falling, full curve]	0.0224 µM [falling, full curve]
Cc1ccccc1-c1cc(NCc2ccccc2)ncn1	–	14.1 µM [falling, partial curve]
Cc1n[nH]c(C)c1C(=O)CC1(O)C(=O)N(CCc2ccccc2)c2ccc(Cl)cc21 (stereo unspecified)	10 µM [rising, partial curve]	11.2 µM [rising, partial curve]
Cc1nn(CC(=O)OCC(=O)NC(C)c2ccccc2)c(C)c1[N+](=O)[O-] (stereo unspecified)	3.98 µM [falling, single point]	3.55 µM [falling, partial curve]
COc1ccc2nc(NC(=O)Nc3ccccc3)sc2c1	35.5 µM [rising, single point]	–
COc1cc(OC)c(NC(=O)C2CCN(C(=O)c3sc4nc[nH]c(=O)c4c3C)CC2)cc1Cl	1.41 µM [falling, full curve, poor fit]	1.41 µM [falling, full curve, poor fit]
COc1cccc2cc(C(C)N(CCCN3CCOCC3)C(=S)Nc3cc(C)cc(C)c3)oc12 (stereo unspecified)	–	35.5 µM [falling, single point]
CC(=O)Oc1ccc2cc(-c3nc4ccccc4n3C)c(=O)oc2c1	–	17.8 µM [rising, single point]
COC(=O)[C@@]1(Cc2ccc(OC)cc2)[C@H]2c3cc(C(=O)N4CCCC4)n(Cc4ccc(OC)c(OC)c4)c3C[C@H]2CN1C(=O)c1ccccc1	17.8 µM [rising, partial curve]	15.8 µM [rising, partial curve]
N#C/C(=C/c1ccc(Sc2nc3ccccc3[nH]2)o1)c1cccc(Br)c1	12.6 µM [rising, single point]	–
C=CS(=O)(=O)c1ccc(Oc2ccc(S(=O)(=O)C=C)cc2)cc1	31.6 µM [falling, single point]	31.6 µM [falling, single point]
O=C1c2cccc(OCC(=O)N3CCCc4ccccc43)c2CCN1Cc1ccc(Br)cc1	35.5 µM [rising, single point]	–
O=C(NCc1cccs1)c1noc2c1CCCC2	35.5 µM [rising, single point]	35.5 µM [rising, single point]
Cc1[nH]c2ccccc2c1C(=O)COC(=O)Cn1c(C(F)(F)F)nc2ccccc21	0.447 µM [rising, full curve]	0.891 µM [rising, full curve, poor fit]
C=CCOc1ccccc1OC[C@H](O)CNC(C)C	–	0.398 µM [falling, partial curve, poor fit]
Cc1ccc(SCCNC(=S)Nc2cc(C)ccc2C)cc1	35.5 µM [rising, single point]	35.5 µM [rising, single point]
Oc1ccc(Br)cc1-c1cc(-c2ccc(Cl)cc2)n[nH]1	5.62 µM [falling, single point]	3.55 µM [falling, partial curve]
